Assay: Solubility of the product
Type: physicochemical
Protocol: On chromatographie separation, two separate peaks of Lidocaine in cationic form and 2,4-dinitrocarvacrol in anionic form can be seen. Methanol is used as a mobile phase and the peak of Lidocaine becomes available at about 24 min and the peak of 2,4-dinitrocarvacrol at about 26 min. Other possible peaks, if present, could be mononitration products and unreacted Carvacrol, which means that the reaction was not completed. Both mononitrocarvacrol and Carvacrol are considered non-harmless impurities.
The novel product's solubility in water is improved by adding nitro groups to its aromatic ring. It can be visually tracked by examining the color of the solution. The nitro group is a well-known chromophore, which means that it changes the ab-sorption of electromagnetic radiation from UV to visible spectra. The nitro groups are also electron-withdrawing by inductive and resonance effects, which improves the acidity of phenolic protons. Improved acidity means that more acidic protons can more easily react with bases.

Compound: CCN(CC)CC(=O)Nc1c(C)cccc1C.Cc1cc([N+](=O)[O-])c(C(C)C)c([N+](=O)[O-])c1O [Novel Compound, 2,4-dinitro-5-isopropyl-2-methylphenoxy-N-(2,6-dimethylphenylium)-N2,N2-diethylglycinamide]
- solubility in PSB (PSB (phosphate-buffered saline, isotonic solution, pH of 7.4), in comparison to Carvacrol salt with Lidocaine): improved
- solubility in alkaline solutions (alkaline solutions, compared with water): even more soluble
- solubility in water (water): slightly soluble
- solubility in water, effect of nitro groups (water, by adding nitro groups to the aromatic ring): improved

— patent US12037302B1, “Compound for treatment of bacterial infections of different etiology in humans” (priority 2021, dated 2024)
